# According to PubChem BioAssay AID1487 (National Center for Advancing Translational Sciences (NCATS), 2009):
# In all, about 200,000 compounds went through this assay and about 25 (0.01%) were called active. Inconclusive means that the source gave no clear call. Such entries were picked first, then a sample of the others. Calls come from the whole dose curve; as a rule, active = well fitted inhibition curve with a large enough effect in the signal ratio, with a control signal flat (not every such curve was filed as active); inconclusive = small, poorly fitted or top-dose-only effect, or effect the other way, or a change in a side signal; inactive = flat fitted curve, though single readings scatter; the % refers to the signal ratio. Potencies beside an inconclusive call are fits to weak or partial responses and may not hold up.
# Assay: qHTS Assay for Modulators of Lamin A Splicing
# Conditions: HeLa LMNA splicing GFP/RFP minigene ratio, 48 h; ratio change, negative = inhibition: at 46.1 µM (top of the series) unless noted
# How it was run: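 S3 HeLa stable clones carrying a lamin A-EGFP splicing minigene plus DsRed2 were seeded at 600 cells/well in Opti-MEM with 2% FBS, pin-dosed and incubated 48 h at 37°C. Acumen cytometry (488 nm) gave the GFP/RFP total-intensity ratio.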
# % is set by controls: 0 for no effect and ±100 for the full control effect; potency is the fitted concentration of half-maximal effect.
SMILES,"ratio change, negative = inhibition",Potency
CCOC(=O)C(=O)/C(=C\N(C)C)c1onc(-c2ccccc2Cl)c1C(=O)OC,inactive,–
CCCc1cc(=O)[nH]c2nnc(SCC(=O)Nc3cccc(C)c3)n12,inconclusive: 30.1% [at 46 µM],–
COc1ccc(CCNC(=O)C2CC(=O)N(c3ccc(Br)cc3)C2)cc1OC (configuration not stated),inconclusive: -6.71% [at 46 µM],–
CCS(=O)(=O)Nc1ccc(-c2cc(-c3ccccc3)c3cc(C)ccc3n2)cc1,inconclusive: -42.8%,–
CC(C)Oc1ccc(CNC(=O)C2CCCN(S(=O)(=O)c3ccc4c(ccn4C)c3)C2)cc1 (configuration not stated),inconclusive: -21.8% [at 46 µM],–
Cc1ccc(CSc2nnc3[nH]c(=O)cc(C)n23)cc1,inactive,–
Cc1ccc(CNS(=O)(=O)c2c(C(=O)N3CCC(C)CC3)c(C)n(C)c2C)cc1,inactive,–
CN(C)C(=O)CN(c1ccc2c(c1)OCO2)S(C)(=O)=O,inactive,–
O=C(NNc1nc2cc3c(cc2s1)OCO3)c1ccc(F)cc1,inactive,–
C[C@]12C[C@H](O)C3[C@@H](CCC4=CC(=O)CC[C@@]43C)[C@@H]1CC[C@@H]2C(=O)CO (some centres not stated),inconclusive: -1.57%,–
CCOc1ccc(OCC(=O)c2c(O)c3ccccc3oc2=O)cc1,inactive,–
C=CCN1C(=O)CN=C1Nc1cc(C)cc(C)c1,inconclusive: 13.9%,–
CN1C2=NCCN2C(=O)c2cc(Cl)ccc21,inconclusive: -2.81% [at 46 µM],–
CCOC(=O)C1CCN(c2ncnc3c2c(-c2ccccc2)cn3-c2ccc(C)c(Cl)c2)CC1,inconclusive: -27% [at 46 µM],–
COCCNc1nc(SCC(=O)N2CCN(c3ccccc3OC)CC2)nc2ccccc12,inconclusive: -7.01%,–
O=C1NC(=O)C(c2ccccc2)(c2ccccc2)N1,inconclusive: 10.8%,–
COc1ccccc1NC(=O)CNC(=O)c1ccccc1C,inactive,–
C=CCN1c2ccccc2[C@]23C[C@@H](C(=O)OC)N(S(=O)(=O)c4ccc(C#N)cc4)C2=NC(C(=O)OC)=C(C(=O)OC)[C@H]13,inconclusive: 4.73% [at 9.22 µM],–
Cc1ccccc1C(=O)c1c[nH]c(C(=O)NCC2CCCO2)c1 (configuration not stated),inconclusive: -22.3%,–
CCC(C)NC(=O)C1CCN(S(=O)(=O)c2ccc3c(ccn3CC)c2)CC1 (configuration not stated),inactive,–
COc1ccccc1CNC(=O)c1cc2cc(S(=O)(=O)N3CCCCC3)ccc2n1C,inconclusive: -5.98% [at 46 µM],–

SMILES,"ratio change, negative = inhibition",Potency
COC(=O)c1ccc(C2/C(=C(/O)c3ccc(OC)cc3)C(=O)C(=O)N2Cc2ccco2)cc1 (configuration not stated),inconclusive: 3.24%,–
COC(=O)[C@@H]1[C@@H](C)OC(=O)N[C@H]1c1ccccc1,inconclusive: -5.68%,–
Cc1ccccc1-c1nn(-c2ccc(F)cc2F)cc1CNCCN(C)C,inconclusive: -7.4% [at 46 µM],–
Cc1sc2nc(C3CC3)nc(NCCNS(=O)(=O)c3ccccc3)c2c1C,inconclusive: -24%,–
CC(c1ccccc1)N(CCC(c1ccccc1)C1CCOC(C)(C)C1)C(=O)c1ccco1 (configuration not stated),inconclusive: -46.6%,–
COc1ccc(-c2nc(C)c(CCNC(=O)c3ccccc3Br)s2)cc1OC,inactive,–
COc1ccc(N2C3=C(CC4=C2CC(C)(C)CC4=O)C(=O)CC(C)(C)C3)cc1,–,"inconclusive: 12.6 µM [inhibitor, single point]"
Cc1nn(Cc2ccccc2)c(Cl)c1C(=O)OCc1nnc(-c2ccccc2)o1,inactive,–
COc1ccc(CCNC(=O)CC2Oc3ccc(Cl)cc3NC2=O)cc1OC (configuration not stated),inactive,–
N#CCSc1ncnc2ccccc12,–,"inconclusive: 12.6 µM [inhibitor, partial curve]"
CN(C)c1ccc(C(CNS(=O)(=O)c2ccc3ccccc3c2)c2c[nH]c3ccccc23)cc1 (configuration not stated),inactive,–
Cc1cc(OCCOc2cccc3cccnc23)cc(C)c1Cl,–,"inconclusive: 35.5 µM [falling, single point]"
Cc1nn(-c2cc(C(F)(F)F)ccc2Cl)c2nc(C(F)(F)F)[nH]c(=O)c12,inconclusive: -32.8%,–
COc1ccc2[nH]cc(CCNc3ncncc3-c3cccnc3)c2c1,inconclusive: -22.1%,–
CCC(Sc1nc(N)cc(=O)[nH]1)C(=O)Nc1cc(C)on1 (configuration not stated),inconclusive: 24.5% [at 46 µM],–
CSc1ccccc1-c1n[nH]c(=S)o1,inactive,–
c1cnc2c(OCc3nc4ccccc4[nH]3)cccc2c1,inactive,–
O=C(NCc1ccc(F)cc1)C(=O)NCC(c1cccs1)S(=O)(=O)c1cccs1 (configuration not stated),inconclusive: 24% [at 46 µM],–
COc1ccc(-n2c(=S)[nH]c3cc(C(=O)Nc4ccc(OC)c(OC)c4)ccc3c2=O)cc1,inactive,–
CCC(=O)Nc1nc(C)c(-c2csc(Nc3ccccn3)n2)s1,–,"inconclusive: 20 µM [inhibitor, single point]"
Cc1ccc(C)c(N(C)S(=O)(=O)c2ccc3[nH]cc(C(=O)NC4CCCC4)c(=O)c3c2)c1,inconclusive: 44% [at 46 µM],–

SMILES,"ratio change, negative = inhibition",Potency
Cc1cccc(NCC(=O)N/N=C/c2cccc(Br)c2)c1,inconclusive: -11.2% [at 46 µM],–
O=C(/C=C/c1ccccc1Cl)N(Cc1ccc(Cl)cc1)C1CCS(=O)(=O)C1 (configuration not stated),inactive,–
C=CCn1cc(C(=O)N2CCN(C)CC2)c(=O)c2cc(S(=O)(=O)N3CCCC3)ccc21,inactive,–
CNc1nc(-c2ccc(OC)cc2)c(-c2ccc(OC)cc2)s1,inactive,–
CCc1nnc(NC(=O)CSc2nnc(-c3ccccc3O)n2-c2ccc(C)cc2)s1,inconclusive: -13.3%,–
O=C(O)Cn1nnnc1SCC(=O)Nc1ccc(F)cc1F,inconclusive: -8.82% [at 46 µM],–
CCOc1c(OC(C)=O)ccc(/C=C/c2ccc3cccc(OC(C)=O)c3n2)c1[N+](=O)[O-],inactive,–
Cc1cc(O)cc(O)c1C(=O)Cc1ccccc1,–,"inconclusive: 12.6 µM [fluorescent, single point]"
CCOC(=O)c1cnc(SCC(=O)Nc2cc(OC)ccc2OC)nc1N,inconclusive: -43.3%,–
CCC1=C(c2ccc(C)cc2)S(=O)(=O)N=C1N1CCC(C(=O)N2CCCCC2)CC1,inactive,–
CCS(=O)(=O)NCCc1csc2nc(-c3ccc(C)cc3)nn12,inconclusive: -12.1% [at 46 µM],–
CCN(CC)S(=O)(=O)c1ccc2oc(SCC3CN=C(c4ccc(OC)cc4)S3)nc2c1 (configuration not stated),inconclusive: -35.5%,–
Cc1c(C(=O)NCc2ccc3c(c2)OCO3)sc2nc(-c3ccc(F)cc3)cn12,inactive,–
O=C(NCc1ccco1)C1CCCCC1,inactive,–
COc1ccc(C2=NN(C(=O)CSc3ncccn3)C(c3ccc(OC)cc3)C2)cc1 (configuration not stated),inactive,–
CCN(CC)C(=O)c1sc2c(c1C)c(=O)n(CCc1ccccc1)c(=O)n2Cc1cccc(Cl)c1,inconclusive: 11.2% [at 46 µM],–
CS(=O)(=O)c1ccc(C(=O)OCc2nnc(-c3ccccc3)o2)cc1[N+](=O)[O-],inactive,–
COCCNS(=O)(=O)c1ccc(-c2ccc(C)cc2)cc1,–,"inconclusive: 11.2 µM [falling, partial curve]"
O=c1nc2cccc3c2=c(/c1=C(\O)c1ccccc1)c1ccccc1c3=O,–,"inconclusive: 0.0447 µM [inhibitor, full curve, poor fit]"
COc1ccc(N2C(=O)CS(=O)(=O)C23C(=O)N(Cc2c(F)cccc2Cl)c2ccccc23)cc1 (configuration not stated),inconclusive: 24.6% [at 46 µM],–
Nc1nc(SC2c3cccc4cccc(c34)C2NS(=O)(=O)c2ccccc2)n[nH]1 (configuration not stated),inactive,–

SMILES,"ratio change, negative = inhibition",Potency
O=C(c1ccc2nc[nH]c2c1)N1CCc2ccccc2C1,inactive,–
CCNc1ccccc(C(=O)/C=C/c2ccc3c(c2)OCO3)c1=O,inactive,–
CCCCn1cc(S(=O)(=O)c2ccccc2)c(=O)c2cc(F)c(N3CCC(C)CC3)cc21,inactive,–
Cc1ccccc1C(=O)NC(C(=O)Nc1nc2c(s1)CCCC2)C(C)C (configuration not stated),–,"inconclusive: 12.6 µM [falling, partial curve]"
CCCN1C(=O)/C(=c2\sc3nc(=O)c(Cc4ccc(C)cc4)nn3c2=O)c2ccccc21,inconclusive: -30.9% [at 46 µM],–
Cc1c(C(=O)OCC(=O)N2c3ccccc3CC2C)oc2ccccc12 (configuration not stated),inconclusive: 12.3%,–
O=C1c2cccc3c([N+](=O)[O-])ccc(c23)C(=O)N1c1nccs1,–,"inconclusive: 15.8 µM [inhibitor, single point]"
CC(=O)Nc1cccc(C(=O)OCC(=O)c2ccccc2Cl)c1,inconclusive: -10.8% [at 46 µM],–
O=C(CCn1c(=S)[nH]c2ccccc2c1=O)NCCSCc1ccccc1,–,"inconclusive: 35.5 µM [cytotoxic, single point]"
COc1ccc(NC(=O)C2CC(=O)N=C(N)S2)cc1 (configuration not stated),inconclusive: 1.25% [at 46 µM],–
O=C(Nc1cccnc1)c1sc2cccc(F)c2c1Cl,inconclusive: 30.6% [at 46 µM],–
Fc1ccc(-c2cc(-c3ccccc3)nc(-n3cccn3)n2)cc1,inconclusive: 39.7% [at 46 µM],–
COc1cccc(C2CC(c3ccccc3OC)n3ncnc3N2)c1 (configuration not stated),inactive,–
Cc1ccc(-n2ncc3c(N4CCCCCC4)ncnc32)cc1C,inconclusive: -28.3% [at 46 µM],–
Cn1nc(C(F)(F)F)c(/C=N/OC(=O)c2ccccc2)c1Cl,inactive,–
COc1ccc(O)c(/C=c2/sc3nc4cc(C)c(C)cc4n3c2=O)c1,inactive,–
CCN1CCN(C(=O)CCN2C(=O)c3ccccc3C2=O)CC1,inconclusive: -7.2% [at 46 µM],–
Cc1ccc(Nc2c(-c3ccccc3O)nc3cnccn23)cc1,inconclusive: -37.7% [at 46 µM],–
Cc1nn(C)c(C(=O)N/N=C/c2ccc(Br)cc2)c1Cl,inconclusive: 5.65%,–

# Given tab-delimited: part of the list above.
SMILES	ratio change, negative = inhibition	Potency
O=C(Nc1cccnc1)c1sc2cccc(F)c2c1Cl	inconclusive: 30.6% [at 46 µM]	–
Fc1ccc(-c2cc(-c3ccccc3)nc(-n3cccn3)n2)cc1	inconclusive: 39.7% [at 46 µM]	–
COc1cccc(C2CC(c3ccccc3OC)n3ncnc3N2)c1 (configuration not stated)	inactive	–
Cc1ccc(-n2ncc3c(N4CCCCCC4)ncnc32)cc1C	inconclusive: -28.3% [at 46 µM]	–
Cn1nc(C(F)(F)F)c(/C=N/OC(=O)c2ccccc2)c1Cl	inactive	–
